Among the data in article PMC8722291 are binding values, retold here.

Protein sequences, listed by entry. Tags and fused reporters are not part of them.
UniProt Q05397: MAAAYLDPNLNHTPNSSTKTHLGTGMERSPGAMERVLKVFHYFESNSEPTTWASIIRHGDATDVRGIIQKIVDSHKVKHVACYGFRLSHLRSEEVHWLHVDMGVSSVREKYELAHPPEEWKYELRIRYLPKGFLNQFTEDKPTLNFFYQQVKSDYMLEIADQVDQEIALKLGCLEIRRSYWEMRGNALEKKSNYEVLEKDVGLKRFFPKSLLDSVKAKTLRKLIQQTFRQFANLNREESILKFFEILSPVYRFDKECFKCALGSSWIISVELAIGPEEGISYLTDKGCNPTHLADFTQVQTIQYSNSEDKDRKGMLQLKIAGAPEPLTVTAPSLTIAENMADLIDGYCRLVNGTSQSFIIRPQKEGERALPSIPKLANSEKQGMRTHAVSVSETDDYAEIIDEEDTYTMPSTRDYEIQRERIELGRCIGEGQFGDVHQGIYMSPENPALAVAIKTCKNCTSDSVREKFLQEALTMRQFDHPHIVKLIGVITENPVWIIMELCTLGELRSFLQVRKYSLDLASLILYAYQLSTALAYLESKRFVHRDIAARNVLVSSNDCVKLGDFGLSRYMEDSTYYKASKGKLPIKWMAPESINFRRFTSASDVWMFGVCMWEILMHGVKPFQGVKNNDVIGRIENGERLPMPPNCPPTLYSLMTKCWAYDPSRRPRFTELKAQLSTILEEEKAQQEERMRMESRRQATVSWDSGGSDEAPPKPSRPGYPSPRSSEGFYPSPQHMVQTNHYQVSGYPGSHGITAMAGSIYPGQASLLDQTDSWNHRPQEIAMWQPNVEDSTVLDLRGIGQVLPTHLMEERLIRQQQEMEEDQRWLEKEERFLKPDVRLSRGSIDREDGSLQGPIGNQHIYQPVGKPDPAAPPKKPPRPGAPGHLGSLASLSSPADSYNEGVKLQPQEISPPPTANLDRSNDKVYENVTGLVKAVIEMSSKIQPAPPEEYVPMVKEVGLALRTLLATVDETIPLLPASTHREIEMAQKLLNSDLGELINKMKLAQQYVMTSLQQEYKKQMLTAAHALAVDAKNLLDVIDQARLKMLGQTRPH
UniProt Q13526: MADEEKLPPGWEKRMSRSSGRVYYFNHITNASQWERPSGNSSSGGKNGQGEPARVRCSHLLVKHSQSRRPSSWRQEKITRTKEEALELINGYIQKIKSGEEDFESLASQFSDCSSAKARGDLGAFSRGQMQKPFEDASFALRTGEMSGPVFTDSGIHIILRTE

No constants are given. Whether binding was seen depends on the method and setting. Binding seen in cells or lysates may run through a third protein. Some entries that bind do so weakly or less than the wild type.

Experiment [1] deals with Growth Factor Receptor Bound Protein 7 (human (endogenous in SK-BR-3)) (UniProt Q14451). Nature of the experiment: co-IP; JIMT-1 cells (Fig. S3H); no further details shown.
Experiment [2] shares this target. Kind of experiment: co-IP; SK-BR-3 cells lysed in co-IP buffer; antibody (anti-GRB7, anti-FAK or anti-Pin1) overnight at 4 °C, protein A/G beads 2 h at 4 °C, Western blot for the other protein; cells with circCDYL2 overexpression or silencing compared with controls.
The target in experiment [3] is Focal adhesion kinase 1 (human (endogenous in SK-BR-3)) (UniProt Q05397). Nature of the experiment: co-IP; JIMT-1 cells (Fig. S3H); no further details shown.
For experiment [4] the target is unchanged. Nature of the experiment: co-IP; SK-BR-3 cells lysed in co-IP buffer; antibody (anti-GRB7, anti-FAK or anti-Pin1) overnight at 4 °C, protein A/G beads 2 h at 4 °C, Western blot for the other protein; cells with circCDYL2 overexpression or silencing compared with controls.
Experiment [5] has as its target peptidyl-prolyl cis/trans isomerase Pin1 (human (endogenous in SK-BR-3)) (UniProt Q13526). The experiment is described as above.

Turning to “Focal adhesion kinase 1 (from UniProt Q05397 1-1052)”, the binding result in experiment [1] and in experiment [2] was “binds” each time.
In the case of “Growth Factor Receptor Bound Protein 7 (from UniProt Q14451 1-532)”, the binding entry in experiment [3], in experiment [4] and in experiment [5] was “binds” throughout.
In the case of “peptidyl-prolyl cis/trans isomerase Pin1 (from UniProt Q13526 1-163)”, the binding result in experiment [2] is “binds”.
